# Results as given in PubChem BioAssay AID720614 (Broad Institute, 2013).
# This is one part of the list. The main result of the screen is listed elsewhere. These columns were measured beside it and carry no call.
# Assay: caspase 3/7 activation in SNB19 cells, mechanism study for HRAS target identification, cell-based, luminescence, several timepoints, dry powder (AID 720614)
# Conditions: SNB19 (HRAS) caspase 3/7 apoptosis luminescence, multiple timepoints, measured here: timepoint 3 max caspase activation, stronger effect = higher value; at 0.26 µM unless noted
row,SMILES,max activity
1,O=C(NCCOCCOCCOc1ccc(N(C(=O)CCl)C(C(=O)NCCc2ccccc2)c2cccs2)cc1Cl)c1ccc(COC2C#CCCCCC2)cc1 (centres undefined),16% [at 0.03 µM]
2,C#CCCCC(=O)NCCOCCOCCOc1ccc(N(C(=O)CCl)C(C(=O)NCCc2ccccc2)c2cccs2)cc1Cl (centres undefined),-10.7% [at 0.0021 µM]
3,COc1cccc2c1C(=O)c1c(O)c3c(c(O)c1C2=O)C[C@@](O)(C(=O)CO)C[C@@H]3OC1C[C@H](N)[C@H](O)[C@H](C)O1 (some centres undefined),26.7% [at 0.008 µM]
4,COc1ccc(N(C(=O)CCl)C(C(=O)NCCc2ccccc2)c2cccs2)cc1Cl (centres undefined),44%
